Test results from the supplement of paper PMC10626197.
Counter-ions that a name gives are not always drawn. Several reference drugs read as weak here; read low effects with care.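 MCF7, a breast cancer cell line, was exposed to pairs of drugs across a grid of doses. Every plate had solvent-only (DMSO) wells as the untreated reference and a doxorubicin series as the total-kill control. No hit threshold is applied to these viability readings.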

Tested on: MCF7
Assay: cell viability relative to DMSO control (raw); higher = more viable cells
Conditions: exposure time 72 h
Method: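 MCF7 cells, 1000 cells/well in 384-well plates, treated with 6x6 dose matrices of drug pairs (1:3 serial dilutions, DMSO as lowest dose) for 72 h at 37 °C. Viability read by CellTiter-Glo luminescence, 3 biological replicates. Normalised viability sets 0% at the highest doxorubicin dose and 100% at the 0,0 µM control per combination.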

COc1cccc2c1C(=O)c1c(O)c3c(c(O)c1C2=O)C[C@@](O)(C(C)=O)C[C@@H]3O[C@H]1C[C@H](N)[C@H](O)[C@H](C)O1 [Daunorubicin] + CN(C)C(=O)C(CCN1CCC(O)(c2ccc(Cl)cc2)CC1)(c1ccccc1)c1ccccc1 [Loperamide (hydrochloride)]
cell viability [%]
Conditions | drug 2 concentration 0 µM | drug 2 concentration 0.185185 µM | drug 2 concentration 0.555556 µM | drug 2 concentration 1.66667 µM | drug 2 concentration 5 µM | drug 2 concentration 15 µM
drug 1 concentration 0.0148148 µM | 97.6 | 101 | 97.9 | 98 | 93.6 | 58.7
drug 1 concentration 0.0444444 µM | 115 | 110 | 104 | 99.9 | 97.1 | 59.1
drug 1 concentration 0.133333 µM | 85.9 | 81.3 | 86.9 | 85.4 | 78.5 | 49.7
drug 1 concentration 0.4 µM | 70.8 | 73.38 | 70.4 | 70.7 | 65 | 45.6
drug 1 concentration 1.2 µM | 26.3 | 26.3 | 25 | 26.8 | 24.1 | 12.9

CC(=O)O[C@@]12CO[C@@H]1C[C@H](O)[C@@]1(C)C(=O)[C@H](O)C3=C(C)[C@@H](OC(=O)[C@H](O)[C@@H](NC(=O)OC(C)(C)C)c4ccccc4)C[C@@](O)([C@@H](OC(=O)c4ccccc4)[C@H]21)C3(C)C [Docetaxel] + CC1=C(/C=C/C(C)=C/C=C/C(C)=C\C(=O)O)C(C)(C)CCC1 [13-cis-Retinoic acid]
cell viability [%]
Conditions | drug 2 concentration 0 µM | drug 2 concentration 0.246914 µM | drug 2 concentration 0.740741 µM | drug 2 concentration 2.22222 µM | drug 2 concentration 6.66667 µM | drug 2 concentration 20 µM
drug 1 concentration 0.00617284 µM | 84 | 93.2 | 94.5 | 98.9 | 85.8 | 75.6
drug 1 concentration 0.0185185 µM | 107 | 111 | 105 | 96.8 | 99.6 | 90.4
drug 1 concentration 0.0555556 µM | 89.3 | 91.9 | 96.2 | 93.4 | 92.9 | 87
drug 1 concentration 0.166667 µM | 104 | 96.2 | 96.6 | 104 | 97.7 | 97.9
drug 1 concentration 0.5 µM | 97.3 | 107 | 96 | 90.4 | 85.8 | 75.5

CC(=O)O[C@@]12CO[C@@H]1C[C@H](O)[C@@]1(C)C(=O)[C@H](O)C3=C(C)[C@@H](OC(=O)[C@H](O)[C@@H](NC(=O)OC(C)(C)C)c4ccccc4)C[C@@](O)([C@@H](OC(=O)c4ccccc4)[C@H]21)C3(C)C [Docetaxel] + Cn1cc(-c2ccc3nnc(C(F)(F)c4ccc5ncccc5c4)n3n2)cn1 [JNJ-38877605]
cell viability [%]
Conditions | drug 2 concentration 0 µM | drug 2 concentration 0.0617284 µM | drug 2 concentration 0.185185 µM | drug 2 concentration 0.555556 µM | drug 2 concentration 1.66667 µM | drug 2 concentration 5 µM
drug 1 concentration 0.00617284 µM | 93.3 | 93.6 | 99.7 | 106 | 88.5 | 75.1
drug 1 concentration 0.0185185 µM | 103 | 104 | 104 | 103 | 102 | 101
drug 1 concentration 0.0555556 µM | 92.4 | 93 | 96.3 | 96.2 | 90.5 | 78.6
drug 1 concentration 0.166667 µM | 100 | 102 | 104 | 97.2 | 101 | 98.5
drug 1 concentration 0.5 µM | 94 | 108 | 106 | 105 | 97.7 | 83.4

C#Cc1cccc(Nc2ncnc3cc(OCCOC)c(OCCOC)cc23)c1 [Erlotinib] + C=C1/C(=C\C=C2/CCC[C@]3(C)[C@@H]([C@H](C)CCCC(C)C)CC[C@@H]23)C[C@@H](O)C[C@@H]1O [Alfacalcidol]
cell viability [%]
Conditions | drug 2 concentration 0 µM | drug 2 concentration 0.617284 µM | drug 2 concentration 1.85185 µM | drug 2 concentration 5.55556 µM | drug 2 concentration 16.6667 µM | drug 2 concentration 50 µM
drug 1 concentration 0.123457 µM | 94.1 | 94.3 | 93.5 | 89.3 | 75.4 | 6.85
drug 1 concentration 0.37037 µM | 93.9 | 91.8 | 91.8 | 84.7 | 76.3 | 6.76
drug 1 concentration 1.11111 µM | 96.1 | 96.2 | 93.9 | 94 | 80.5 | 6.28
drug 1 concentration 3.33333 µM | 91.3 | 88.5 | 87.9 | 81.2 | 65.8 | 7.39
drug 1 concentration 10 µM | 84.9 | 79.7 | 79.1 | 71.4 | 56.7 | 0.97

C#Cc1cccc(Nc2ncnc3cc(OCCOC)c(OCCOC)cc23)c1 [Erlotinib] + CCCNC(=O)c1cn2ncnc(Nc3cc(C(=O)NC4CC4)ccc3C)c2c1C [BMS-582949 (hydrochloride)]
cell viability [%]
Conditions | drug 2 concentration 0 µM | drug 2 concentration 0.37037 µM | drug 2 concentration 1.11111 µM | drug 2 concentration 3.33333 µM | drug 2 concentration 10 µM | drug 2 concentration 30 µM
drug 1 concentration 0.123457 µM | 107 | 104 | 101 | 97 | 92.8 | 82.6
drug 1 concentration 0.37037 µM | 108 | 111 | 112 | 119 | 99.4 | 89.7
drug 1 concentration 1.11111 µM | 104 | 101 | 103 | 104 | 89.8 | 82.4
drug 1 concentration 3.33333 µM | 106 | 103 | 104 | 101 | 97.9 | 87.3
drug 1 concentration 10 µM | 81.2 | 85.4 | 87.5 | 86.4 | 81.2 | 71.4

C#Cc1cccc(Nc2ncnc3cc(OCCOC)c(OCCOC)cc23)c1 [Erlotinib] + CN1CCN(CCCN2c3ccccc3Sc3ccc(C(F)(F)F)cc32)CC1 [Trifluoperazine 2HCl]
cell viability [%]
Conditions | drug 2 concentration 0 µM | drug 2 concentration 0.185185 µM | drug 2 concentration 0.555556 µM | drug 2 concentration 1.66667 µM | drug 2 concentration 5 µM | drug 2 concentration 15 µM
drug 1 concentration 0.123457 µM | 96.4 | 94 | 94.6 | 90 | 83.1 | 10.1
drug 1 concentration 0.37037 µM | 91.4 | 93.19 | 94.9 | 92.2 | 79.3 | 14.5
drug 1 concentration 1.11111 µM | 95.9 | 97.1 | 102 | 97.3 | 81.9 | 9.61
drug 1 concentration 3.33333 µM | 94.7 | 97.4 | 92.6 | 92.5 | 81 | 3.64
drug 1 concentration 10 µM | 85.5 | 83.7 | 81.2 | 82 | 78.2 | 6.28

C#Cc1cccc(Nc2ncnc3cc(OCCOC)c(OCCOC)cc23)c1 [Erlotinib] + CN(C)CCCN1c2ccccc2CCc2ccc(Cl)cc21 [Clomipramine (hydrochloride)]
cell viability [%]
Conditions | drug 2 concentration 0 µM | drug 2 concentration 0.123457 µM | drug 2 concentration 0.37037 µM | drug 2 concentration 1.11111 µM | drug 2 concentration 3.33333 µM | drug 2 concentration 10 µM
drug 1 concentration 0.123457 µM | 105 | 104 | 101 | 104 | 98.9 | 78.5
drug 1 concentration 0.37037 µM | 120 | 115 | 119 | 116 | 112 | 89.9
drug 1 concentration 1.11111 µM | 102 | 99.5 | 100 | 101 | 101 | 79.2
drug 1 concentration 3.33333 µM | 106 | 110 | 105 | 115 | 105 | 80.4
drug 1 concentration 10 µM | 85.8 | 81.3 | 85.9 | 90.3 | 82.1 | 61

C#Cc1cccc(Nc2ncnc3cc(OCCOC)c(OCCOC)cc23)c1 [Erlotinib] + COc1cc2nc(N3CCN(C(=O)C4CCCO4)CC3)nc(N)c2cc1OC [Terazosin (hydrochloride dihydrate)]
cell viability [%]
Conditions | drug 2 concentration 0 µM | drug 2 concentration 0.0308642 µM | drug 2 concentration 0.0925926 µM | drug 2 concentration 0.277778 µM | drug 2 concentration 0.833333 µM | drug 2 concentration 2.5 µM
drug 1 concentration 0.123457 µM | 104 | 99.1 | 106 | 104 | 105 | 99.2
drug 1 concentration 0.37037 µM | 108 | 103 | 107 | 103 | 104 | 107
drug 1 concentration 1.11111 µM | 104 | 106 | 104 | 104 | 99.7 | 96.2
drug 1 concentration 3.33333 µM | 111 | 111 | 108 | 108 | 112 | 107
drug 1 concentration 10 µM | 87.6 | 86.2 | 100 | 94.1 | 90.3 | 95.6

C#Cc1cccc(Nc2ncnc3cc(OCCOC)c(OCCOC)cc23)c1 [Erlotinib] + N#CC1(c2ccc(NC(=O)c3cccnc3NCc3ccncc3)cc2)CCCC1 [Apatinib]
cell viability [%]
Conditions | drug 2 concentration 0 µM | drug 2 concentration 0.0617284 µM | drug 2 concentration 0.185185 µM | drug 2 concentration 0.555556 µM | drug 2 concentration 1.66667 µM | drug 2 concentration 5 µM
drug 1 concentration 0.123457 µM | 111 | 105 | 110 | 111 | 105 | 104
drug 1 concentration 0.37037 µM | 112 | 107 | 112 | 115 | 116 | 111
drug 1 concentration 1.11111 µM | 110 | 99.1 | 104 | 105 | 109 | 107
drug 1 concentration 3.33333 µM | 113 | 113 | 97.2 | 105 | 110 | 104
drug 1 concentration 10 µM | 89 | 81.1 | 91.2 | 86.8 | 83.9 | 82.4

COc1cc2ncnc(Nc3ccc(F)c(Cl)c3)c2cc1OCCCN1CCOCC1 [Gefitinib] + C=C1/C(=C\C=C2/CCC[C@]3(C)[C@@H]([C@H](C)CCCC(C)C)CC[C@@H]23)C[C@@H](O)C[C@@H]1O [Alfacalcidol]
cell viability [%]
Conditions | drug 2 concentration 0 µM | drug 2 concentration 0.617284 µM | drug 2 concentration 1.85185 µM | drug 2 concentration 5.55556 µM | drug 2 concentration 16.6667 µM | drug 2 concentration 50 µM
drug 1 concentration 0.123457 µM | 88.1 | 82 | 78 | 77.9 | 64 | 0.866
drug 1 concentration 0.37037 µM | 93.1 | 83.4 | 84.4 | 79.4 | 66.8 | 0.546
drug 1 concentration 1.11111 µM | 86.9 | 83.5 | 82.2 | 84.6 | 62.1 | 0.392
drug 1 concentration 3.33333 µM | 86.37 | 82.4 | 82 | 76.3 | 63.3 | 0.336
drug 1 concentration 10 µM | 77.1 | 59.4 | 66.2 | 53.3 | 41.2 | 3.6

COc1cc2ncnc(Nc3ccc(F)c(Cl)c3)c2cc1OCCCN1CCOCC1 [Gefitinib] + NS(=O)(=O)c1cc2c(cc1Cl)NCNS2(=O)=O [Hydrochlorothiazide]
cell viability [%]
Conditions | drug 2 concentration 0 µM | drug 2 concentration 0.0246914 µM | drug 2 concentration 0.0740741 µM | drug 2 concentration 0.222222 µM | drug 2 concentration 0.666667 µM | drug 2 concentration 2 µM
drug 1 concentration 0.123457 µM | 101 | 109 | 108 | 104 | 100 | 108
drug 1 concentration 0.37037 µM | 104 | 115 | 113 | 114 | 111 | 110
drug 1 concentration 1.11111 µM | 106 | 106.4 | 104 | 109 | 111 | 107
drug 1 concentration 3.33333 µM | 98.5 | 95.2 | 102 | 112 | 110 | 110
drug 1 concentration 10 µM | 68.4 | 67.3 | 70.8 | 64.2 | 72.7 | 72.5
